Source: the supplement of paper PMC10849652
This is one part of the list.

By UniProt entry, the sequences of proteins in these tests, tags left out. Where a name states a change or a piece, a line headed by the entry shows the natural chain unless it says otherwise.
UniProt Q7Z628: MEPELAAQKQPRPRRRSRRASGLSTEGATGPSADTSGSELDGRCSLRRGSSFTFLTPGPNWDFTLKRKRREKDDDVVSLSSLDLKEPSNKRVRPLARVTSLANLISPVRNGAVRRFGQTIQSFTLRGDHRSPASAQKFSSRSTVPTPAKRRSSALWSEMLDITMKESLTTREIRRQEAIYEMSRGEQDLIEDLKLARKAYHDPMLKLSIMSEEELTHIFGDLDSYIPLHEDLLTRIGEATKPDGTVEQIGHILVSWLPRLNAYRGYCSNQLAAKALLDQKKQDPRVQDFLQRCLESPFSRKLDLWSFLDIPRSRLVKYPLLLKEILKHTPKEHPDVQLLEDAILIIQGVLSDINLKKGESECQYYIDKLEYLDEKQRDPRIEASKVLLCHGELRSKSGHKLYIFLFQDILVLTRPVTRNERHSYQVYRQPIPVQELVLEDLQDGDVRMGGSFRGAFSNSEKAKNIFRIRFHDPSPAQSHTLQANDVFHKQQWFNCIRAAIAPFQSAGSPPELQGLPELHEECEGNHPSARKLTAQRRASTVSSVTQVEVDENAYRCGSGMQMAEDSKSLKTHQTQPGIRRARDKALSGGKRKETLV
UniProt Q14494: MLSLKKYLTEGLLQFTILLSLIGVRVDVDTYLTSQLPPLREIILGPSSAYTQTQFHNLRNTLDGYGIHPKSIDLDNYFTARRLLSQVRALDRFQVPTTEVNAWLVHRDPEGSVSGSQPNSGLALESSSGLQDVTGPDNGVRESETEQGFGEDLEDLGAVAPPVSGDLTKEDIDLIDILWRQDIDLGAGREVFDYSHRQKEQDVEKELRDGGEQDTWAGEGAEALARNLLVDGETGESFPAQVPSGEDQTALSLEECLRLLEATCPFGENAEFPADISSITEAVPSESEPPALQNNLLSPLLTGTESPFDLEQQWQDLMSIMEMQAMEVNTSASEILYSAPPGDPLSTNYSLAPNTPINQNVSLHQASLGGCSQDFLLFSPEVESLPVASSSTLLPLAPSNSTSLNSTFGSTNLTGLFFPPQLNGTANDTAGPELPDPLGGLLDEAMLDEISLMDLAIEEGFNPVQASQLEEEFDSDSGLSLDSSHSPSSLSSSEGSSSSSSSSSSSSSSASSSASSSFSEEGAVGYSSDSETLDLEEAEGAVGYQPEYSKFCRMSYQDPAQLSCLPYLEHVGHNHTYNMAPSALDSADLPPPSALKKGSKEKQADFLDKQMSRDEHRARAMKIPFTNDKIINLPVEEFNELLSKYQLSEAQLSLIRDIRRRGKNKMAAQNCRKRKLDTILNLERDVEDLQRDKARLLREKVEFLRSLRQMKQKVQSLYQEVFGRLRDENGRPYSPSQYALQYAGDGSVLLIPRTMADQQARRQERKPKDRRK
UniProt O95167, whole entry, looked up: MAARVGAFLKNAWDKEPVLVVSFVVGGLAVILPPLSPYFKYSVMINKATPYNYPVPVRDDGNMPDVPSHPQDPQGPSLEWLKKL
UniProt Q9NYS0: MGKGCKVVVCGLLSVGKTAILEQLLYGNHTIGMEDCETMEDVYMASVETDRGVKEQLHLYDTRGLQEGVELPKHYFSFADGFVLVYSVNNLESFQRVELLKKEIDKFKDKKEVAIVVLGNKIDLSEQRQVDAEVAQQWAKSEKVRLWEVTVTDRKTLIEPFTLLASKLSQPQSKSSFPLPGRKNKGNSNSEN
UniProt Q969S2: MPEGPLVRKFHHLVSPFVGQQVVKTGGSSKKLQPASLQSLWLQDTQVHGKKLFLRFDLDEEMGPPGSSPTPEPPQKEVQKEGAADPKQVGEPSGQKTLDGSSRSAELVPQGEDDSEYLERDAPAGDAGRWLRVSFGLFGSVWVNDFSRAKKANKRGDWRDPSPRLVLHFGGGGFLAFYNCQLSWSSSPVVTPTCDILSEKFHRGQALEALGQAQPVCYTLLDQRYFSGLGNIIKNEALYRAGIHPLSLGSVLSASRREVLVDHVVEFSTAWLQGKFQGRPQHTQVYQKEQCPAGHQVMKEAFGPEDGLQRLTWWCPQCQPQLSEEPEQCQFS
UniProt Q92859: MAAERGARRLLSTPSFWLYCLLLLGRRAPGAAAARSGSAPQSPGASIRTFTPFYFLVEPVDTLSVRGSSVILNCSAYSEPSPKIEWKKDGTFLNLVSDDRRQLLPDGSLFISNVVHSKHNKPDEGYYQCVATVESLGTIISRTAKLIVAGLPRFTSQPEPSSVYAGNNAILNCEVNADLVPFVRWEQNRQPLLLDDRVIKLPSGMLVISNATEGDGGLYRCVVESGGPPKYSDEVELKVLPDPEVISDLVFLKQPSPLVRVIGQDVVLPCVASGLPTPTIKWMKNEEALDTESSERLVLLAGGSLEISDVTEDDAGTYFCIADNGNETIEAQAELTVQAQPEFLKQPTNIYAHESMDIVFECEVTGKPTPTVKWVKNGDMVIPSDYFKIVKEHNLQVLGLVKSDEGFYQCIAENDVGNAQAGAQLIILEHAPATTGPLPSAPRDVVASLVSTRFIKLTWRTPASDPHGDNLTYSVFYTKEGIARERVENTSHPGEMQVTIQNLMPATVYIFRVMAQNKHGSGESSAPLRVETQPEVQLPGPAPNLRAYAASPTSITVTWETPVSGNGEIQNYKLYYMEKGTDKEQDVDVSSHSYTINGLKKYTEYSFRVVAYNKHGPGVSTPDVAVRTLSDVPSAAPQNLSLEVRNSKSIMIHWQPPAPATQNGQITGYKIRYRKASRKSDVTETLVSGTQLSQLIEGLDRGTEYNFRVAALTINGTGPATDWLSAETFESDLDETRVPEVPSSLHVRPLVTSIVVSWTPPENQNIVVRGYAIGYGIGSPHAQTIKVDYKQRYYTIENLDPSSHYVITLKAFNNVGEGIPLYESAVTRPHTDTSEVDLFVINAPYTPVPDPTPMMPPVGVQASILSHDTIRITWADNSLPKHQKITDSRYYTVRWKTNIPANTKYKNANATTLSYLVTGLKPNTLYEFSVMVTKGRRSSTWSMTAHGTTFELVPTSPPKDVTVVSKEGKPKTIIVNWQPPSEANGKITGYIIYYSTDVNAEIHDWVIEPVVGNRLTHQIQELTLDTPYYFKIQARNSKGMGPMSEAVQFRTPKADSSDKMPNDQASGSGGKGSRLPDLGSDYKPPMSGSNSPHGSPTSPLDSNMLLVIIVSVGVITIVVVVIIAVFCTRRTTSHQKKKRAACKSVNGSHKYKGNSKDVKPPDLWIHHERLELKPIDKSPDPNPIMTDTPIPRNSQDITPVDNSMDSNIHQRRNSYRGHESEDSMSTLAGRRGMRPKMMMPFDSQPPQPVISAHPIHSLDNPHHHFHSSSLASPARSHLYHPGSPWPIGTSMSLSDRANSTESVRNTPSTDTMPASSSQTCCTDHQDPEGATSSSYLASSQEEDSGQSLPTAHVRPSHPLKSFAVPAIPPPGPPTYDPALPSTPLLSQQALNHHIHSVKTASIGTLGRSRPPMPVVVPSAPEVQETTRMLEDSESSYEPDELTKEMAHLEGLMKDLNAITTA
UniProt Q5JS37: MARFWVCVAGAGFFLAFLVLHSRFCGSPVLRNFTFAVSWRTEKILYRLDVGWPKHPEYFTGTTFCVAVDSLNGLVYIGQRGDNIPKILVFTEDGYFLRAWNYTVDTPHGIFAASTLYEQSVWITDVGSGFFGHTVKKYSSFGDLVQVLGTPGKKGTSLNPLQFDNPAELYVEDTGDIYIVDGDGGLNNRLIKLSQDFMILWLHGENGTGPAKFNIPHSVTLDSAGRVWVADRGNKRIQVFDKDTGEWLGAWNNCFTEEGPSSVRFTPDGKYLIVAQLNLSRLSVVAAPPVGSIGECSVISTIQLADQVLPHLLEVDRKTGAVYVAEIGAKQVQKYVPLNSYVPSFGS
UniProt Q9UBE8: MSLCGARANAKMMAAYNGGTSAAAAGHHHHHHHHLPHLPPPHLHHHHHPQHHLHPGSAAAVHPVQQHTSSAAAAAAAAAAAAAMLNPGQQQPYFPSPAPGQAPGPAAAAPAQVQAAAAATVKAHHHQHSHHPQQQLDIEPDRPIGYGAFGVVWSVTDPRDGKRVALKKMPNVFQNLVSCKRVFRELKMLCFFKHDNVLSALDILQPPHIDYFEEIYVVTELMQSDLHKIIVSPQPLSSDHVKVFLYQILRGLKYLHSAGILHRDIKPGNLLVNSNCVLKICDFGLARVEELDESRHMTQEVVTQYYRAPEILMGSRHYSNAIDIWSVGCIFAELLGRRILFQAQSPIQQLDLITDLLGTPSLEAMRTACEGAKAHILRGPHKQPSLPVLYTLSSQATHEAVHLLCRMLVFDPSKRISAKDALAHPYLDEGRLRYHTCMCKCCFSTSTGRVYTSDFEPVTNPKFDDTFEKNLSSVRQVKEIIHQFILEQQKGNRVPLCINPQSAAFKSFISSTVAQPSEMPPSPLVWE
UniProt O43677, whole entry, looked up: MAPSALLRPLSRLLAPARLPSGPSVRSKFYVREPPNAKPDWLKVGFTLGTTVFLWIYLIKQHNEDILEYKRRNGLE
UniProt Q6ZUT1: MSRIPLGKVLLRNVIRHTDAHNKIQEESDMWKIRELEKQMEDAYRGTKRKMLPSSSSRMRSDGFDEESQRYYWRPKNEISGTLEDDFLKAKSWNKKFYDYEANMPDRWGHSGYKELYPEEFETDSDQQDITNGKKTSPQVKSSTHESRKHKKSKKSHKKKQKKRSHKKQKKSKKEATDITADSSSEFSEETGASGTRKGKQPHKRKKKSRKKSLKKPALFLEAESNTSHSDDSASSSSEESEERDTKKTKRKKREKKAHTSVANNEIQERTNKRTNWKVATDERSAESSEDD
UniProt Q6P3R8: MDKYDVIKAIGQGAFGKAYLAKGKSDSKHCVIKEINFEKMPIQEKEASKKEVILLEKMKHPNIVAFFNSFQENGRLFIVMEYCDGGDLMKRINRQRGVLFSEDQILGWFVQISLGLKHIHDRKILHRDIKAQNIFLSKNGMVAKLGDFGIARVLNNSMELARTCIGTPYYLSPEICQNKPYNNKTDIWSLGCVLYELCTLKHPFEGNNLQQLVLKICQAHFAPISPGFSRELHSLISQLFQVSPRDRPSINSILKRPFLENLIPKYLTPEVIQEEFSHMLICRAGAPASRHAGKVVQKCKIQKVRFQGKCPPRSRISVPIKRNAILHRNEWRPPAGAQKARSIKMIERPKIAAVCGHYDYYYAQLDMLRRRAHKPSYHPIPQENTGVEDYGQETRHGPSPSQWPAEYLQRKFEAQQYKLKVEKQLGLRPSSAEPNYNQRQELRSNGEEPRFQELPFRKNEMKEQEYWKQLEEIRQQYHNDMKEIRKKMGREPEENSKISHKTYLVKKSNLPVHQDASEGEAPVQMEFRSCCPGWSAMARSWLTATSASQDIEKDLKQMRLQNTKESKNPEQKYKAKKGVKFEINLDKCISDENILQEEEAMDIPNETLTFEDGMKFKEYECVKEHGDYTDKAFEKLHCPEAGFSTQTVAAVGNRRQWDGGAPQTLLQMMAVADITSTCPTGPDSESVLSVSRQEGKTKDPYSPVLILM
UniProt Q86SG6: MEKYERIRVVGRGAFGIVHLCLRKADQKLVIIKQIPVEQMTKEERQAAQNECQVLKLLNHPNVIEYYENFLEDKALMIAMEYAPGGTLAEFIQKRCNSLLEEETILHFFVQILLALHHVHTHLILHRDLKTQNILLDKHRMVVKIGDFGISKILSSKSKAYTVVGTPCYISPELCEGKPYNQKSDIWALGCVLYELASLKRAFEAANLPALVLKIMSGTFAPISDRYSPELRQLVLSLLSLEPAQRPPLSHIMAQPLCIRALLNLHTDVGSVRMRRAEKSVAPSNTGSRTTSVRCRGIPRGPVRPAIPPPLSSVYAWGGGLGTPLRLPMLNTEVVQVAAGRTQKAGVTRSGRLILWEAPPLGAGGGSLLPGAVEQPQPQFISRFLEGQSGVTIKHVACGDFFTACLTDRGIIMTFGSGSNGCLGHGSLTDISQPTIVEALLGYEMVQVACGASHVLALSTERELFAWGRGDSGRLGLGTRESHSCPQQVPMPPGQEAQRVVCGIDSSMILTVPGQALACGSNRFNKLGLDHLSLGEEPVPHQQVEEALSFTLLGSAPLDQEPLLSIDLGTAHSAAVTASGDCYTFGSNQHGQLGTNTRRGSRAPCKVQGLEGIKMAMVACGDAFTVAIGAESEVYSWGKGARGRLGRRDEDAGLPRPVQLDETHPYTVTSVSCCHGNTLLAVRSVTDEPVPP
UniProt O75438, whole entry, looked up: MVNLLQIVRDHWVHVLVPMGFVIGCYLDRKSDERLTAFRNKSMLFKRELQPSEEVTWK
UniProt Q9NV92: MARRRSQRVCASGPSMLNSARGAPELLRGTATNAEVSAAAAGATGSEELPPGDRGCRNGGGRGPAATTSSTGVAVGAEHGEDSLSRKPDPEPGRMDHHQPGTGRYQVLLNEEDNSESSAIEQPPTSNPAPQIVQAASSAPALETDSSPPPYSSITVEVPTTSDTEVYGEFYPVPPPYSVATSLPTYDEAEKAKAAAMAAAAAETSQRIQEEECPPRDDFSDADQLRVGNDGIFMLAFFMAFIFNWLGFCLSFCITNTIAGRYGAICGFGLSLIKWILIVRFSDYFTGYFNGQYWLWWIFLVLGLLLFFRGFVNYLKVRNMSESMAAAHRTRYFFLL

Assays:
Experiment in all cases: log2 fold change, soluble protein after heating vs DMSO (PISA); higher = thermal stabilisation; K562 lysate, 10 uM; active = over 0.2 and 3.5 SD of the protein, either way, in both replicates (recomputed)
ralimetinib = compound: CC(C)(C)Cn1c(N)nc2ccc(-c3[nH]c(C(C)(C)C)nc3-c3ccc(F)cc3)nc21 [ralimetinib]
Method in brief: (§1)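 Values give the log-two fold change in thermal stability against solvent controls, from duplicates. Crude K562 extract at 1 mg/mL protein, made by dounce homogenisation in PBS pH 7.4 with 1 mM MgCl2, was treated with 10 μM compound for 30 min. After 3 min heating across 48°C-58°C, aliquots were pooled, adjusted to 0.5% NP-40 at 4°C and centrifuged at 21,000xg for 90 min. The supernatant was measured by TMTpro 16plex LC-MS/MS with channel sums equalised.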

[1] = compound: CC(C)(O)CC(=O)NCCn1ccc2ncnc(Nc3ccc(Oc4cccc(C(F)(F)F)c4)c(Cl)c3)c21
Method in brief: as §1

[2] = compound: CC(C)C1=C2N=C(C=C(N2N=C1)NCC3=CC=CC=C3)NCCCCCCN
Method in brief: as §1

[3] = compound: CC1=C(C(CC(=O)N1)C2=CC=C(C=C2)C(F)(F)F)C(=O)NC3=C(C=C4C(=C3)C=NN4)F
Method in brief: as §1

[4] = compound: CC1=C(C=C(C=C1)NC(=O)C2=CC(=CC=C2)C(C)(C)C#N)NC3=CC4=C(C=C3)N=CN(C4=O)C
Method in brief: as §1

[5] = compound: CC1=C(C=C(C=C1)NC(=O)C2=CC(=CC=C2)N(C)C)NC(=O)C3=CC=C(C=C3)O
Method in brief: as §1

vemurafenib = compound: CCCS(=O)(=O)Nc1ccc(F)c(C(=O)c2c[nH]c3ncc(-c4ccc(Cl)cc4)cc23)c1F [vemurafenib]
Method in brief: as §1

[6] = compound: CCn1c(C(=O)N(C2CC2)C2CC2)cc2c3c(ncn3C)c(Nc3cc(C)n(C)n3)nc21
Method in brief: as §1

sotrastaurin = compound: CN1CCN(c2nc(C3=C(c4c[nH]c5ccccc45)C(=O)NC3=O)c3ccccc3n2)CC1 [sotrastaurin]
Method in brief: as §1

[7] = compound: CC(=O)c1cnc2ccc(-c3cc(Cl)c(O)c(Cl)c3)nc2c1N[C@H]1CC[C@H](CN(C)C)CC1
Method in brief: as §1

[8] = compound: CC1=C(C2=C(C=C1)C(=O)C3=CC=CC=C3N2CCCN)C
Method in brief: as §1

[9] = compound: CC1=CC=C(C=C1)SC2=C3C=C(SC3=CN=C2)C(=O)N
Method in brief: as §1

[10] = compound: CCCS(=O)(=O)Nc1ccc(F)c(C(=O)c2c[nH]c3ncc(Cl)cc23)c1F
Method in brief: as §1

[11] = compound: CC[C@@H]1C(=O)N(C)c2cnc(Nc3ccc(C(=O)NC4CCN(C)CC4)cc3OC)nc2N1C1CCCC1
Method in brief: as §1

volasertib = compound: CC[C@@H]1C(=O)N(C)c2cnc(Nc3ccc(C(=O)N[C@H]4CC[C@H](N5CCN(CC6CC6)CC5)CC4)cc3OC)nc2N1C(C)C [volasertib]
Method in brief: as §1

saracatinib = compound: CN1CCN(CCOc2cc(OC3CCOCC3)c3c(Nc4c(Cl)ccc5c4OCO5)ncnc3c2)CC1 [saracatinib]
Method in brief: as §1

[12] = compound: CCn1cc(-c2ccnc3[nH]c(-c4cccc(CN(C)C)c4)cc23)c(-c2ccc(NC(=O)N(C)C)cc2)n1
Method in brief: as §1

[13] = compound: CN1CCC(CNc2ccc3ncc(-c4cccc(OC(F)(F)F)c4)n3n2)CC1
Method in brief: as §1

ibrutinib = compound: C=CC(=O)N1CCC[C@@H](n2nc(-c3ccc(Oc4ccccc4)cc3)c3c(N)ncnc32)C1 [ibrutinib]
Method in brief: as §1

barasertib = compound: CCN(CCCOc1ccc2c(Nc3cc(CC(=O)Nc4cccc(F)c4)[nH]n3)ncnc2c1)CCOP(=O)(O)O [barasertib]
Method in brief: as §1

Measured: log2 fold change

NET1 (UniProt Q7Z628)
inactive: ralimetinib -0.237 | [1] 0.02 | [2] 0.038 | [3] -0.01 | [4] -0.057 | [5] 0.024 | vemurafenib 0.288 | [6] 0.008 | sotrastaurin 0.326

NDRG2 isoform 6 (UniProt Q9UN36)
inactive: [7] -0.227 | ralimetinib 0.127 | [1] 0.046 | [2] -0.043 | [8] 0.023 | [5] -0.02 | [9] -0.362 | vemurafenib -0.22 | [10] 0.046 | [11] 0.214 | volasertib 0.205 | [6] -0.026 | saracatinib -0.007

NEK4 (UniProt P51957)
inactive: vemurafenib 0.093

NFE2L1 (UniProt Q14494)
inactive: ralimetinib 0.202 | [1] 0.058 | [2] -0.076 | [4] -0.024 | [5] -0.236 | vemurafenib 0.055 | [11] 0.092 | [6] -0.061 | [12] 0.061 | [13] 0.083 | sotrastaurin 0.062

NEU4 (UniProt C9JEA3)
inactive: ibrutinib -0.063 | ralimetinib -0.026 | [1] -0.135 | [2] -0.053 | [3] 0.018 | [8] -0.034 | [4] -0.051 | [5] 0.051 | vemurafenib 0.058 | barasertib -0.01 | [6] -0.106 | [12] -0.075 | [13] 0.066 | saracatinib -0.003 | sotrastaurin 0.022

NDUFA3 (UniProt O95167)
inactive: ibrutinib 0.001 | ralimetinib -0.047 | [1] -0.047 | [2] 0.002 | [3] 0.001 | [8] -0.002 | [4] 0.072 | [5] 0.071 | vemurafenib 0.011 | barasertib 0.018 | [11] -0.04 | [6] 0.061 | [12] -0.148 | [13] -0.156 | saracatinib 0.028 | sotrastaurin 0.005

NKIRAS1 (UniProt Q9NYS0)
inactive: [7] -0.072 | [2] 0.04 | [3] 0.149 | [8] -0.063 | [9] 0.065 | vemurafenib 0.04 | [10] -0.239 | [11] 0.128 | volasertib -0.031 | [12] 0.284 | [13] 0.149 | saracatinib 0.131

NEIL2 (UniProt Q969S2)
inactive: [2] 0.039 | [3] 0.143

NEO1 (UniProt Q92859)
inactive: ibrutinib -0.291 | barasertib 0.014 | [12] 0.054 | [13] 0.126

NHLRC3 (UniProt Q5JS37)
inactive: [7] 0.023 | ralimetinib 0.106 | [1] 0 | [2] -0.047 | [3] -0.026 | [8] 0.035 | [4] -0.062 | [5] -0.003 | [9] -0.015 | vemurafenib 0.178 | [10] 0.055 | [11] 0.062 | volasertib 0.058 | [6] -0.005 | [12] -0.053 | [13] 0.022 | saracatinib 0.036 | sotrastaurin 0.068

NLRP1 (UniProt Q9C000)
inactive: ralimetinib -0.133 | [1] 0.067 | [2] 0.205 | [8] 0.283 | [4] 0.295 | [5] -0.25 | [11] -0.064 | [6] 0.034 | saracatinib 0.108 | sotrastaurin -0.292

NLK (UniProt Q9UBE8)
inactive: [2] -0.058 | vemurafenib -0.042 | [12] -0.223 | [13] -0.042

NDUFC1 (UniProt O43677)
inactive: ralimetinib 0.008 | [1] 0.1 | [2] -0.01 | [8] 0.002 | [5] -0.019 | [11] 0.077 | [6] -0.082 | saracatinib 0.131

NKAPD1 isoform 2 (UniProt Q6ZUT1)
inactive: [2] 0.025 | [3] -0.028

NFRKB isoform 2 (UniProt Q6P4R8)
inactive: [7] -0.031 | [2] -0.017 | [3] 0.035 | [4] 0.124 | [9] -0.048 | [10] 0.009 | [11] 0.151 | volasertib 0.04 | [12] 0.021 | [13] 0.187 | sotrastaurin -0.039

2 successive entries out of the list so far:
NDUFC1 (UniProt O43677)
inactive: ralimetinib 0.008 | [1] 0.1 | [2] -0.01 | [8] 0.002 | [5] -0.019 | [11] 0.077 | [6] -0.082 | saracatinib 0.131

NKAPD1 isoform 2 (UniProt Q6ZUT1)
inactive: [2] 0.025 | [3] -0.028

Following part:

NEMP1 (UniProt O14524)
inactive: ibrutinib -0.079 | [4] -0.11 | barasertib -0.01 | sotrastaurin 0.048

NFIX (UniProt Q14938)
inactive: [11] 0.031

NEK5 (UniProt Q6P3R8)
inactive: [7] -0.085 | ralimetinib 0.203 | [1] -0.122 | [3] 0.05 | [8] 0.02 | [5] -0.051 | [9] -0.001 | vemurafenib -0.095 | [10] 0.003 | [11] -0.018 | volasertib -0.047 | [6] -0.007 | [12] -0.045 | [13] -0.153 | saracatinib 0.022

NEK8 (UniProt Q86SG6)
inactive: ralimetinib 0.014 | [1] 0.076 | [2] 0.151 | [3] 0.038 | [5] 0.03 | vemurafenib -0.089 | [6] -0.008 | [12] -0.068 | [13] -0.045

NECTIN2 isoform 2 (UniProt Q92692)
inactive: [7] 0.008 | ralimetinib -0.126 | [1] -0.081 | [2] -0.241 | [3] 0.123 | [8] -0.031 | [4] 0.03 | [5] 0.047 | [9] -0.079 | vemurafenib -0.125 | [10] 0.002 | [11] 0.006 | volasertib 0.041 | [6] 0.044 | [12] 0.157 | [13] -0.032 | saracatinib -0.026 | sotrastaurin 0.127

NFYC isoform 3 (UniProt Q13952)
inactive: [2] 0.196 | [8] 0.331 | saracatinib -0.043

NDUFB1 (UniProt O75438)
inactive: ibrutinib -0.063 | ralimetinib 0.069 | [1] -0.069 | [2] -0.053 | [3] 0.013 | [8] 0.002 | [4] 0.009 | [5] 0.008 | vemurafenib 0.052 | barasertib 0.026 | [6] 0.01 | [12] 0.073 | [13] -0.159 | saracatinib -0.11 | sotrastaurin 0.145

NGDN (UniProt Q8NEJ9)
inactive: [7] -0.049 | ralimetinib 0.053 | [1] 0.009 | [2] -0.091 | [3] -0.032 | [4] -0.012 | [5] 0.047 | [9] 0.063 | [10] -0.161 | [11] -0.059 | volasertib -0.108 | [6] -0.096 | sotrastaurin 0.054

NFE2L2 (UniProt Q16236)
inactive: [4] 0.068 | sotrastaurin 0.16

NDFIP2 (UniProt Q9NV92)
inactive: ralimetinib -0.003 | [1] -0.152 | [3] -0.013 | [4] -0.002 | [5] 0.009 | [6] 0.027 | [12] -0.031 | [13] 0.095 | sotrastaurin 0.17
